Results are given in words; binding and its absence hold for the method and conditions named. Some binding calls cover weakened binding; strength is not graded here.

Protein sequences, listed by entry. Tags and fused reporters are not part of them. Lines headed by an entry give the natural chain unless they say otherwise; changes in a name come on top. Residues count along the entry.
UniProt P15941, residues 1110-1255: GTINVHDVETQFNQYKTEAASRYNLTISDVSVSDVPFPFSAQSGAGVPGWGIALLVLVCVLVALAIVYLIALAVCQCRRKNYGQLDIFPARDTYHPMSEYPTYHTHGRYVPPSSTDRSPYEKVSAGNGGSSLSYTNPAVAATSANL

The source of these data is US20250276016A1.

For the experiment, the target named is MUC1* on T47D breast cancer cells (UniProt P15941). Description: co-culture of CAR T cells with T47D cells; binding told in words, not measured.

B1: MNC2-28-3z (CAR comprising a huMNC2 scFv, a CD28 co-stimulatory domain and a CD3ζ signaling domain) (protein)
chain: EVQLVESGGGLVKPGGSLRLSCAASGFTFSGYAMSWVRQAPGKGLEWVSTISSGGTYIYYPDSVKGRFTISRDNAKNSLYLQMNSLRAEDTAVYYCARLGGDNYYEYFDVWGKGTTVTVSSGGGGSGGGGSGGGGSDIVLTQSPASLAVSPGQRATITCRASKSVSTSGYSYMHWYQQKPGQPPKLLIYLASNLESGVPARFSGSGSGTDFTLTINPVEANDTANYYCQHSRELPFTFGGGTKVEIKRTKHLCPSPLFPGPSKPFWVLVVVGGVLACYSLLVTVAFIIFWVRSKRSRLLHSDYMNMTPRRPGPTRKHYQPYAPPRDFAAYRSRVKFSRSADAPAYKQGQNQLYNELNLGRREEYDVLDKRRGRDPEMGGKPRRKNPQEGLYNELQKDKMAEAYSEIGMKGERRRGKGHDGLYQGLSTATKDTYDALHMQALPPR
For the molecule B1, the binding entry is reported as “binds”.

B2: MNC2-28-1XX (CAR comprising a huMNC2 scFv, a CD28 co-stimulatory domain and a CD3ζ with Tyrosines in ITAM2 and ITAM3 mutated to Phenylalanine) (protein)
chain: EVQLVESGGGLVKPGGSLRLSCAASGFTFSGYAMSWVRQAPGKGLEWVSTISSGGTYIYYPDSVKGRFTISRDNAKNSLYLQMNSLRAEDTAVYYCARLGGDNYYEYFDVWGKGTTVTVSSGGGGSGGGGSGGGGSDIVLTQSPASLAVSPGQRATITCRASKSVSTSGYSYMHWYQQKPGQPPKLLIYLASNLESGVPARFSGSGSGTDFTLTINPVEANDTANYYCQHSRELPFTFGGGTKVEIKRTKHLCPSPLFPGPSKPFWVLVVVGGVLACYSLLVTVAFIIFWVRSKRSRLLHSDYMNMTPRRPGPTRKHYQPYAPPRDFAAYRSRVKFSRSADAPAYKQGQNQLYNELNLGRREEYDVLDKRRGRDPEMGGKPRRKNPQEGLFNELQKDKMAEAFSEIGMKGERRRGKGHDGLFQGLSTATKDTFDALHMQALPPR
In the case of B2, the binding entry was “binds”.
